These are yes or no findings as the source states them, for the method shown. In cells and extracts the contact can be indirect. Some binding calls cover weakened binding; strength is not graded here.
Biological target: CD47 (Integrin Associated Protein) (human (endogenous in Int 407)) (UniProt Q08722)
Assay: co-IP; anti-CD47 (MEM122) immunoprecipitation from lysates (1% octyl-β-D-1-thioglucopyranoside) of Int 407 cells adhered for 1 h to collagen I or BSA coated dishes, overnight at 4°C, protein G; Western blot for α2 integrin and CD47; cells pre-treated or not with PTX, anti-CD47 B6H12, anti-β2 integrin antibody or control IgG

Protein sequences, listed by entry. Tags and fused reporters are not part of them. Residues count along the entry.
UniProt Q08722, residues 19-323: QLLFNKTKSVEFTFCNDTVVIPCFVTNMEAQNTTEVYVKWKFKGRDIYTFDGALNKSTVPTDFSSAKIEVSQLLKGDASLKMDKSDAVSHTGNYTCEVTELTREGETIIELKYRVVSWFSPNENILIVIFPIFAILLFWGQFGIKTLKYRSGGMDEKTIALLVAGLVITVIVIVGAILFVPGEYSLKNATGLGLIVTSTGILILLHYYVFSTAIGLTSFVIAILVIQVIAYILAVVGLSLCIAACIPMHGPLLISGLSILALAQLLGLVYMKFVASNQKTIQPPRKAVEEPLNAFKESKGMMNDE
UniProt P17301, residues 30-1181: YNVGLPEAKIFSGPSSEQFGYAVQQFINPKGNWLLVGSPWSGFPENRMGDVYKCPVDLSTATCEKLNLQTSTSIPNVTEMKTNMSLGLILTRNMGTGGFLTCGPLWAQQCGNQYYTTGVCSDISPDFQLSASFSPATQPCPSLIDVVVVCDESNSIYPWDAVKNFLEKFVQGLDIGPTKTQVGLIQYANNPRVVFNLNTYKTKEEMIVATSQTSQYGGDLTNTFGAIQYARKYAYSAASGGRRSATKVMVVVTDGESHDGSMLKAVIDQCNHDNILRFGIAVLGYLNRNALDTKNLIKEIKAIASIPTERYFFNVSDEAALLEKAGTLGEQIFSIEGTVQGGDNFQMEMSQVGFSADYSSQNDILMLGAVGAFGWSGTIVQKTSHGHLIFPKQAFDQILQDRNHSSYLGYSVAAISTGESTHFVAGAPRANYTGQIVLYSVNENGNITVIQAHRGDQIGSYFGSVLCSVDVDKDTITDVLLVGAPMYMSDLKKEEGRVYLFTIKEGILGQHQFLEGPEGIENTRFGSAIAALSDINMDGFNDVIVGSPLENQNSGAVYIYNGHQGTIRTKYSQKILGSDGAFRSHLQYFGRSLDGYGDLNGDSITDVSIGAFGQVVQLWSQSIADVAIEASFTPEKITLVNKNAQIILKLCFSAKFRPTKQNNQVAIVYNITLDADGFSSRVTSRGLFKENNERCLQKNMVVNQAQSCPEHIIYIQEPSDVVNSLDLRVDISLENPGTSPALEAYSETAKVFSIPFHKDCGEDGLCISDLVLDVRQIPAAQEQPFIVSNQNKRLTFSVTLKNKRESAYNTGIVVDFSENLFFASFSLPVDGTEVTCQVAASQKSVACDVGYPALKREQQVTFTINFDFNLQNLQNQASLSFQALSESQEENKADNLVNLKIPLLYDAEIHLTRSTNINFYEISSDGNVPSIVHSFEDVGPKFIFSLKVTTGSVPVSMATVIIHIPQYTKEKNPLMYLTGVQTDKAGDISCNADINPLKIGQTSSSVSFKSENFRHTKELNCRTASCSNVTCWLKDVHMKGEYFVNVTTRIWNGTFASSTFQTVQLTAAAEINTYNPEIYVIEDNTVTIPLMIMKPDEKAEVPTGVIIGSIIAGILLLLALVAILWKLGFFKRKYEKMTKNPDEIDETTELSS

α2 integrin (from UniProt P17301 30-1181)
binding: binds

Source: article PMC2712095
